Test results taken from the supplement of paper PMC12819154, “High-throughput peptide-centric local stability assay extends protein–ligand identification to membrane proteins, tissues and bacteria” (Nature Structural & Molecular Biology, 2025).
The list shows a part of the results. Small differences around the control level are noise.

The chains behind the UniProt entries cited, without tags or fusion partners. Where a name states a change or a piece, a line headed by the entry shows the natural chain unless it says otherwise.
UniProt O70172: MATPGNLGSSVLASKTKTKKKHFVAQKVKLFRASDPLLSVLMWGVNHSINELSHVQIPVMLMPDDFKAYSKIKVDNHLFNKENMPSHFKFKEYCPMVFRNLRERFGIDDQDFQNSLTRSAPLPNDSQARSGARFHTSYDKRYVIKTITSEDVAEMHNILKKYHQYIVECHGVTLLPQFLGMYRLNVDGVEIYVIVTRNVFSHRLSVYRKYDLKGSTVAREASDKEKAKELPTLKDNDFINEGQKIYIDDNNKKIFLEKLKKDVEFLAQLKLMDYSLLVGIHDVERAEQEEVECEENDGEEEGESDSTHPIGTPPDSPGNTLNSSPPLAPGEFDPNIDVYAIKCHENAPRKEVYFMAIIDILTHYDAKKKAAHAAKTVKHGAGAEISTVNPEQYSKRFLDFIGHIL
UniProt O89086: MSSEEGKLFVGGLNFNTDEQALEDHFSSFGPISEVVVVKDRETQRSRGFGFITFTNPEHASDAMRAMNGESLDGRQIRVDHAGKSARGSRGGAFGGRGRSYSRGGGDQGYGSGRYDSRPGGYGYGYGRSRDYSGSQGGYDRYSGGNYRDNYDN
UniProt O35682: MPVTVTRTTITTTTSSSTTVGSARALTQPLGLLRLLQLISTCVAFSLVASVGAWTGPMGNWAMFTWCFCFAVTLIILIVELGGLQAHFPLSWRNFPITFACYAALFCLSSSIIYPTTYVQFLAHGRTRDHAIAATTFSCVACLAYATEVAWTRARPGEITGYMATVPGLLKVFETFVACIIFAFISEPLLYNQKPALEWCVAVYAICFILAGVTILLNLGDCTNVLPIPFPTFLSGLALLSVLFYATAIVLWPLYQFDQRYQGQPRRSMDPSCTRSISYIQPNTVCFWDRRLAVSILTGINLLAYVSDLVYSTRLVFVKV
UniProt O09117: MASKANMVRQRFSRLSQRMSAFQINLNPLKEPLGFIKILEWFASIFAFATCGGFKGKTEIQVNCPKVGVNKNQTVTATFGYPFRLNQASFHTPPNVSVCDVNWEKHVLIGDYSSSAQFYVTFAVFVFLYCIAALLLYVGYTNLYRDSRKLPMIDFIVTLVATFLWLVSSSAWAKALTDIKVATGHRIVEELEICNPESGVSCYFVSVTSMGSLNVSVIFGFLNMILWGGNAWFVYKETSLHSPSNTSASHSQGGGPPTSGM
UniProt O09164: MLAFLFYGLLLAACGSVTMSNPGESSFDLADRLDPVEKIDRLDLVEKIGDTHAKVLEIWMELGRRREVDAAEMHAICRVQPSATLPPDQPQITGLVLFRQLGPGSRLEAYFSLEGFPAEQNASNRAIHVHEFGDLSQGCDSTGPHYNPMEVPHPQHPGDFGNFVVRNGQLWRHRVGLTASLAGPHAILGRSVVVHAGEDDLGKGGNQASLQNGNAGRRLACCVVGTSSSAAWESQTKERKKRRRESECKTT
UniProt O88792: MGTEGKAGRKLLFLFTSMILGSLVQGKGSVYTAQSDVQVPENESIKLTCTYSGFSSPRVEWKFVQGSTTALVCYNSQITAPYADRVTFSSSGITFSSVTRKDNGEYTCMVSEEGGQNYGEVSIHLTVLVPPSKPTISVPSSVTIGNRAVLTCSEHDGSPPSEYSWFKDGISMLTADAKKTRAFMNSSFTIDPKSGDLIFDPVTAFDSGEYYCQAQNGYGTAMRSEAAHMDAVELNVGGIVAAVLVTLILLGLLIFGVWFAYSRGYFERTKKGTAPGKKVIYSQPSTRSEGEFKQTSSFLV
UniProt O88532: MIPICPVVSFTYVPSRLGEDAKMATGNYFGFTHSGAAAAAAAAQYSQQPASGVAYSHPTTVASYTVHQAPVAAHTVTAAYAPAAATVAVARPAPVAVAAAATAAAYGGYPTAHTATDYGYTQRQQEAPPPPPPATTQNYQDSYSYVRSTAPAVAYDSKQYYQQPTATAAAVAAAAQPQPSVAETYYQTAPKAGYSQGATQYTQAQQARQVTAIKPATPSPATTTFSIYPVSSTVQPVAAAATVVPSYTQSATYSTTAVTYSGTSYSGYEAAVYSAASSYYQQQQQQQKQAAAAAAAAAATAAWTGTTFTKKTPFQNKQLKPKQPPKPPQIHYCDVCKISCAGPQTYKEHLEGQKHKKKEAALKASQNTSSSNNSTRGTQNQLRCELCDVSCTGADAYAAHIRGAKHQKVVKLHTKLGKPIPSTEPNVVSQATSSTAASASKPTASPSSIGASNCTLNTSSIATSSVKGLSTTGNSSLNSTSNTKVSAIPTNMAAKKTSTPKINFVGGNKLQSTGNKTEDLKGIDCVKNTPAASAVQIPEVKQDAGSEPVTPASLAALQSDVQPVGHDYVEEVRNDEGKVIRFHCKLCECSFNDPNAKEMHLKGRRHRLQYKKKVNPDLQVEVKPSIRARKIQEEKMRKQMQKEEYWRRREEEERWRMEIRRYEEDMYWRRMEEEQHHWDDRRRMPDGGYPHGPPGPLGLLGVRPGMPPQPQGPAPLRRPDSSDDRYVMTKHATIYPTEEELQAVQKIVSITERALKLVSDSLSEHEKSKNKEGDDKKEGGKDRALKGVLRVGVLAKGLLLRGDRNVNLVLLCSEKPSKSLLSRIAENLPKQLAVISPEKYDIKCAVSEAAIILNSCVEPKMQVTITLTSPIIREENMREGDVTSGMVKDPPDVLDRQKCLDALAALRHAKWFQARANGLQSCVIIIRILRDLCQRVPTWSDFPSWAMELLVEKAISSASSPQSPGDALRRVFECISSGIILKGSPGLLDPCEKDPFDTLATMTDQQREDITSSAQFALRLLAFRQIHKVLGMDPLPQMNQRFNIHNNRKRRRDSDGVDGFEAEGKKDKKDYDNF
UniProt O35459: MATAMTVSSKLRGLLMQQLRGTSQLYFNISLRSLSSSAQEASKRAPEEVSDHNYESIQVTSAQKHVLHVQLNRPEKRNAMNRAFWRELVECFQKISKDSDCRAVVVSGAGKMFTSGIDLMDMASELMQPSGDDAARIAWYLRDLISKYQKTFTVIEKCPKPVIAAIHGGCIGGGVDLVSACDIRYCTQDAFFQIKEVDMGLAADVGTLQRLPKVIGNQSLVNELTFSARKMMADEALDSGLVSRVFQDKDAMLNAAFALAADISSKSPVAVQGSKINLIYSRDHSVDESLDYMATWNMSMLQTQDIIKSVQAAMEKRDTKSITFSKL
UniProt G5E8Q8: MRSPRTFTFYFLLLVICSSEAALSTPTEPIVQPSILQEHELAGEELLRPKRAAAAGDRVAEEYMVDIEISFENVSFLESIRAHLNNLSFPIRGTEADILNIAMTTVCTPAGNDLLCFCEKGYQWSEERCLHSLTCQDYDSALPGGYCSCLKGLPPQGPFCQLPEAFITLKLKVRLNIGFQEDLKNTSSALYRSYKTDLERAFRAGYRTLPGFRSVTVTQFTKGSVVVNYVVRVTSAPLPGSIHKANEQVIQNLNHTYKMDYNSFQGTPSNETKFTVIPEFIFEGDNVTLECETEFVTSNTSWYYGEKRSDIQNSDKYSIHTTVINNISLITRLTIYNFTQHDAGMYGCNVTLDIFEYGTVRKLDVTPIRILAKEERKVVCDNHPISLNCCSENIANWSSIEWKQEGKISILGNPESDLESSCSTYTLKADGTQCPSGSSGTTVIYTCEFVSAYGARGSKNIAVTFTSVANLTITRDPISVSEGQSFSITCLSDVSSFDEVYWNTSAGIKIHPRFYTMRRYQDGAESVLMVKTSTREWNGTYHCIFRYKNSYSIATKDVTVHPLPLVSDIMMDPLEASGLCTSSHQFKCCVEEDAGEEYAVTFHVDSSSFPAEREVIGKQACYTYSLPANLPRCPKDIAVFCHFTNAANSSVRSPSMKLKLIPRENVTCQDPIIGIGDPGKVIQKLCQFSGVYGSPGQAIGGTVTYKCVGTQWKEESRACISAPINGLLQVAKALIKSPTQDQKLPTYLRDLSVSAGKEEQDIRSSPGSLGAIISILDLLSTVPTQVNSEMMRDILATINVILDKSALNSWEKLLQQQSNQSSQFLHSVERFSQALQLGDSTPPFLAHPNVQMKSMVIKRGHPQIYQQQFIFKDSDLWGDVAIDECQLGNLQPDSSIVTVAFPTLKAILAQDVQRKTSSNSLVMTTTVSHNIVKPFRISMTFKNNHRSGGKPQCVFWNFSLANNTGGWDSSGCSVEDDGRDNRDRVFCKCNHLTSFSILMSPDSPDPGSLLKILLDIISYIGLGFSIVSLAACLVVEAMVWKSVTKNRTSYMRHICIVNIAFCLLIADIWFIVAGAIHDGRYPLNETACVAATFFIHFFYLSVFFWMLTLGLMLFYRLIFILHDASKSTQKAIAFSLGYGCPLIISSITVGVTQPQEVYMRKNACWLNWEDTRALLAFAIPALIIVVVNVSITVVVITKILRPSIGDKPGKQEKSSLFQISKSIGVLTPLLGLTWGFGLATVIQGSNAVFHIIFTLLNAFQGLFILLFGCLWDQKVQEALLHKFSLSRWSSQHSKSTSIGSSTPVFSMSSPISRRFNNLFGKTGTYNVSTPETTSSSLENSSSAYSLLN
UniProt O88844, whole entry: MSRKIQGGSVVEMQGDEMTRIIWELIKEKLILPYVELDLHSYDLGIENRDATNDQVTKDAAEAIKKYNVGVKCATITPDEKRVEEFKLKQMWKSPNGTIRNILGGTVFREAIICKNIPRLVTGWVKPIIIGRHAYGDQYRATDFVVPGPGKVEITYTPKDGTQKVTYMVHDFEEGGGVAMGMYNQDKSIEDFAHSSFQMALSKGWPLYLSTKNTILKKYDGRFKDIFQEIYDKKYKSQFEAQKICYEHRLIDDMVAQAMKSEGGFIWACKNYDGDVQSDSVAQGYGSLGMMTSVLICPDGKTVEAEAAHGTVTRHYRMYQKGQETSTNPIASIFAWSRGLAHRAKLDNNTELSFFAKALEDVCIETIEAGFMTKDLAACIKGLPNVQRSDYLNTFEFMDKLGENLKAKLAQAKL
UniProt O08788, whole entry: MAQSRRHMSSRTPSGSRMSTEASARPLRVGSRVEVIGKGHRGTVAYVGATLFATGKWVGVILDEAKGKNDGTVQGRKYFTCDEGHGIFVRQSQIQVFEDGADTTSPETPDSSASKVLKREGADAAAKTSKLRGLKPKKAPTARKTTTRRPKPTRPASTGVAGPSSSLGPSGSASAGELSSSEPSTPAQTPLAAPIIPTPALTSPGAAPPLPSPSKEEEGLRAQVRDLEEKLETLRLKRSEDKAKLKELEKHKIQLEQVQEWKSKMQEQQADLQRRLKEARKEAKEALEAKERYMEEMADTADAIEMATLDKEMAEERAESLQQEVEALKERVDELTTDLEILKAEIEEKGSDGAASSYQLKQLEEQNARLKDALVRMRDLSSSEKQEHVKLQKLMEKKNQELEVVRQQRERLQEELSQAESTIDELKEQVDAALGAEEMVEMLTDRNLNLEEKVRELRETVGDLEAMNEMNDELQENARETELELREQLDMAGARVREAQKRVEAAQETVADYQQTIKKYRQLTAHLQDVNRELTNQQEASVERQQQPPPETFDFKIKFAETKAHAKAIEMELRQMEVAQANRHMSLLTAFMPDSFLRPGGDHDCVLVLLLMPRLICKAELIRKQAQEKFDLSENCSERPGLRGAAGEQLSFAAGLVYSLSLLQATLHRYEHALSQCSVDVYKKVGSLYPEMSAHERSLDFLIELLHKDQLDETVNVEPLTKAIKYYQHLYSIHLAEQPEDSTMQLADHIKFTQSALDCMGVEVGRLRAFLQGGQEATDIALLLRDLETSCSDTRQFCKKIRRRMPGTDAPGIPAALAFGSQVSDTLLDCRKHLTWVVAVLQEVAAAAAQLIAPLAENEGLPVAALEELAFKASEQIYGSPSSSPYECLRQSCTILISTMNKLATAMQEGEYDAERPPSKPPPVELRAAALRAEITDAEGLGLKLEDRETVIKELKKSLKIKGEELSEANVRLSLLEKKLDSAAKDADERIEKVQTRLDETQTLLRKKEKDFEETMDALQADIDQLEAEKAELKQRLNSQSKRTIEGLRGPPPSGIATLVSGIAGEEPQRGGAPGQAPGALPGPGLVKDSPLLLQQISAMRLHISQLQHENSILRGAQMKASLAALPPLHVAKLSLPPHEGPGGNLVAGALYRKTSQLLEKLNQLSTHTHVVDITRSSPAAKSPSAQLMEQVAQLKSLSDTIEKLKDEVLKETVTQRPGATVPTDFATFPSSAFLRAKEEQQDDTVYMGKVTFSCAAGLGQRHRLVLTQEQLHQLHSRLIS
UniProt O88968: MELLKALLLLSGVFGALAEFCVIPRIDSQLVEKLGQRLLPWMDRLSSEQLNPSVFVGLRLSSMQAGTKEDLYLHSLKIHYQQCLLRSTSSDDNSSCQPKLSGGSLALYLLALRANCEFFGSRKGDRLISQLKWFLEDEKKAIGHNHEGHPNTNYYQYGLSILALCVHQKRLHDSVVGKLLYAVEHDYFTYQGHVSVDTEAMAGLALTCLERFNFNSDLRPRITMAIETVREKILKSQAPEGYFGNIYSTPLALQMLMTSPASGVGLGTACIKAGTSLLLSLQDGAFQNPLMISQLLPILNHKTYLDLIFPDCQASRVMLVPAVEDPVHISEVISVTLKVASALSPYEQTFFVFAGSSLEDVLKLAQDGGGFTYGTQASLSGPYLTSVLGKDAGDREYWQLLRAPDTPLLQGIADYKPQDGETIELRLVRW

Compound: CN[C@@H]1C[C@H]2O[C@@](C)([C@@H]1OC)n1c3ccccc3c3c4c(c5c6ccccc6n2c5c31)C(=O)NC4 [staurosporine]
Experiment: log2 fold change of pooled soluble protein (PISA), ligand vs vehicle (log2 ratio); higher = more thermally stabilized
Conditions: ligand concentration: 20 uM; assay format: PISA pool 52.9/55.5/58.6 C

Target | log2 fold change of pooled soluble protein
UniProt O88878 | -0.164
UniProt O70325 | -0.0521
UniProt O70172 | -0.231
UniProt G5E8K5 | -0.124
UniProt O08691 | -0.148
UniProt O89086 | -0.0408
UniProt O35682 | -0.149
UniProt O88630 | 0.0881
UniProt O35516 | 0.0663
UniProt O54734 | -0.148
UniProt O09117 | -0.0724
UniProt O09174 | 0.173
UniProt O54754 | -0.056
UniProt O55003 | -0.247
UniProt O09164 | 0.0161
UniProt O88792 | -0.0566
UniProt O08966 | -0.0406
UniProt O88532 | 0.0323
UniProt O35490 | -0.306

2 records drawn at random from the list so far, as already listed:
Target | log2 fold change of pooled soluble protein
UniProt O08966 | -0.0406
UniProt O54734 | -0.148

Going on with the list.

Target | log2 fold change of pooled soluble protein
UniProt O54941 | -0.0413
UniProt O08677 | -0.102
UniProt O55026 | -0.4
UniProt O08983 | 0.111
UniProt O35459 | -0.148
UniProt O70570 | 0.000156
UniProt O54879 | 0.0712
UniProt G5E8Q8 | 0.194
UniProt O89023 | -0.205
UniProt O88803 | -0.119
UniProt O35988 | -0.0913
UniProt O88844 | -0.0516
UniProt O08705 | 0.201
UniProt P00405 | -0.154
UniProt P01831 | 0.0905
UniProt O08788 | -0.0466
UniProt O08917 | -0.121
UniProt O88968 | -0.0775
